Structures are written as SMILES. Screen size: about 1,200 compounds; about 130 (11%) were called active. No stated cut-off is given here; in the data, active means activation above about 120%; inactive means the rest. The entries are a selection whose mix differs from that of the whole data set.

The assay is described as follows: NF-kB reporter activators in human cells, counter-screen for STAT3 activator project (AID 1309).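 Further: reporter induced by TNF-alpha stimulation; 100% = median of stimulated DMSO wells and 0% = no signal.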 Conditions: NF-kappaB reporter activation, at 5.7 µM, hits give high values. (The purpose of a counterscreen is to sort out artefacts and off-target activity.)
Consider `CCC/C(=N\O)c1c[nH]c2ccccc12`, for which the activation (% of control) is inactive: 103%.
Consider `COc1cc(-n2c(=S)[nH]c3ccc(C)cc3c2=O)c(Cl)cc1Cl`, for which the activation (% of control) is inactive: 100%.
